Laboratory results published in the supplement of paper PMC11546906.
Structures can show the parent of a compound that is named as a salt. This is one part of the list. Repeats in this data set agree poorly, so a single value says little.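 FDA-approved drugs were each paired with colistin at one-eighth its MIC and screened against a multidrug-resistant, mcr-1-positive clinical E. coli isolate, with OD600 read after 24 h. Drug-free bacteria served as growth control, plain broth as blank. Combinations were active if OD600 dropped below 0.2.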

tested on: Escherichia coli 42 (mcr-1-positive clinical isolate); assay: OD600 after 24 h growth with compound plus colistin (absorbance units (OD600)); higher = more bacterial growth (less inhibition); details: first compound 25 µM; colistin concentration 0.5 ug/mL; incubation time 24 h; 37 °C

Structure (SMILES) | OD600
C[C@H](CCC(=O)O)[C@H]1CC[C@H]2[C@@H]3CC[C@@H]4C[C@H](O)CC[C@]4(C)[C@H]3C[C@H](O)[C@]12C [Deoxycholic acid] + CCC(C)CCCC(=O)N[C@@H](CCN)C(=O)N[C@H](C(=O)N[C@@H](CCN)C(=O)N[C@H]1CCNC(=O)[C@H]([C@@H](C)O)NC(=O)[C@H](CCN)NC(=O)[C@H](CCN)NC(=O)[C@H](CC(C)C)NC(=O)[C@@H](CC(C)C)NC(=O)[C@H](CCN)NC1=O)[C@@H](C)O [colistin] | inactive: 1.19
C[C@@H](Oc1cc(-c2cnn(C3CCNCC3)c2)cnc1N)c1c(Cl)ccc(F)c1Cl [Crizotinib] + CCC(C)CCCC(=O)N[C@@H](CCN)C(=O)N[C@H](C(=O)N[C@@H](CCN)C(=O)N[C@H]1CCNC(=O)[C@H]([C@@H](C)O)NC(=O)[C@H](CCN)NC(=O)[C@H](CCN)NC(=O)[C@H](CC(C)C)NC(=O)[C@@H](CC(C)C)NC(=O)[C@H](CCN)NC1=O)[C@@H](C)O [colistin] | inactive: 0.969
O=C1Cc2cc(CCN3CCN(c4nsc5ccccc45)CC3)c(Cl)cc2N1 [Ziprasidone hydrochloride monohydrate] + CCC(C)CCCC(=O)N[C@@H](CCN)C(=O)N[C@H](C(=O)N[C@@H](CCN)C(=O)N[C@H]1CCNC(=O)[C@H]([C@@H](C)O)NC(=O)[C@H](CCN)NC(=O)[C@H](CCN)NC(=O)[C@H](CC(C)C)NC(=O)[C@@H](CC(C)C)NC(=O)[C@H](CCN)NC1=O)[C@@H](C)O [colistin] | inactive: 0.93
N=C(N)N [Guanidine hydrochloride] + CCC(C)CCCC(=O)N[C@@H](CCN)C(=O)N[C@H](C(=O)N[C@@H](CCN)C(=O)N[C@H]1CCNC(=O)[C@H]([C@@H](C)O)NC(=O)[C@H](CCN)NC(=O)[C@H](CCN)NC(=O)[C@H](CC(C)C)NC(=O)[C@@H](CC(C)C)NC(=O)[C@H](CCN)NC1=O)[C@@H](C)O [colistin] | inactive: 1.12
CCOC(=O)[C@H](CCc1ccccc1)N[C@@H](C)C(=O)N1Cc2ccccc2C[C@H]1C(=O)O [Quinapril hydrochloride] + CCC(C)CCCC(=O)N[C@@H](CCN)C(=O)N[C@H](C(=O)N[C@@H](CCN)C(=O)N[C@H]1CCNC(=O)[C@H]([C@@H](C)O)NC(=O)[C@H](CCN)NC(=O)[C@H](CCN)NC(=O)[C@H](CC(C)C)NC(=O)[C@@H](CC(C)C)NC(=O)[C@H](CCN)NC1=O)[C@@H](C)O [colistin] | inactive: 1.06
COc1ccccc1OCC(O)CO (centres undefined) [Guaifenesin] + CCC(C)CCCC(=O)N[C@@H](CCN)C(=O)N[C@H](C(=O)N[C@@H](CCN)C(=O)N[C@H]1CCNC(=O)[C@H]([C@@H](C)O)NC(=O)[C@H](CCN)NC(=O)[C@H](CCN)NC(=O)[C@H](CC(C)C)NC(=O)[C@@H](CC(C)C)NC(=O)[C@H](CCN)NC1=O)[C@@H](C)O [colistin] | inactive: 0.944
O=C(OCc1ccccc1)c1ccccc1 [Benzyl benzoate] + CCC(C)CCCC(=O)N[C@@H](CCN)C(=O)N[C@H](C(=O)N[C@@H](CCN)C(=O)N[C@H]1CCNC(=O)[C@H]([C@@H](C)O)NC(=O)[C@H](CCN)NC(=O)[C@H](CCN)NC(=O)[C@H](CC(C)C)NC(=O)[C@@H](CC(C)C)NC(=O)[C@H](CCN)NC1=O)[C@@H](C)O [colistin] | inactive: 1.02
O=C1CCC(N2C(=O)c3ccccc3C2=O)C(=O)N1 (centres undefined) [Thalidomide] + CCC(C)CCCC(=O)N[C@@H](CCN)C(=O)N[C@H](C(=O)N[C@@H](CCN)C(=O)N[C@H]1CCNC(=O)[C@H]([C@@H](C)O)NC(=O)[C@H](CCN)NC(=O)[C@H](CCN)NC(=O)[C@H](CC(C)C)NC(=O)[C@@H](CC(C)C)NC(=O)[C@H](CCN)NC1=O)[C@@H](C)O [colistin] | inactive: 1.07
C[C@@H]1CCN(C(=O)CC#N)C[C@@H]1N(C)c1ncnc2[nH]ccc12 [Tofacitinib Citrate] + CCC(C)CCCC(=O)N[C@@H](CCN)C(=O)N[C@H](C(=O)N[C@@H](CCN)C(=O)N[C@H]1CCNC(=O)[C@H]([C@@H](C)O)NC(=O)[C@H](CCN)NC(=O)[C@H](CCN)NC(=O)[C@H](CC(C)C)NC(=O)[C@@H](CC(C)C)NC(=O)[C@H](CCN)NC1=O)[C@@H](C)O [colistin] | inactive: 0.901
